Data published in PMC10163288.
The other results are listed elsewhere or left out.

B1: il2ra_site1_3nfp_sap_10_mot_HHH_b2_05615_000000234_0001_23_39_H_._HHH_b1_05775_0001_0000200011_0000001_0_0001_af2pred_0001_af2pred (protein)
chain: SSSSSSAREEVEELLEEVEELFKQGNPKEADRVFKEAARLALKANDEEAEELLEKFARNISSSSS
B2: il2ra_site2_2erj_normal_mot_HHH_b2_01353_af2_000000049_0001_23_39_H_._HHH_b1_00778_0001_0001200048_0000001_0 (protein)
chain: SSSDKEEAEELYEEAKELLERGNPEEALRVLRRASTLAFESGDEELFNRLSELVEKILRLGSSSS
B3: il2ra_site2_2erj_normal_mot_af86707857d369f3e1d85dcabc5f9321_0001_000000201_0001_14_29_H_._HHH_b2_03838_af2_0001_0000200004_0000001_0 (protein)
chain: SSSSSSSEEERAEELTEEAKEIEDPEEALRVLSEAFELAYRVGDHRLAAEVIELAHRLNSSSSSS
B4: il2ra_site1_3nfp_normal_mot_HHH_b1_01159_af2_000000107_0001_1_20_H_._HHH_b1_03088_af2_0001_0000100003_0000001_0 (protein)
chain: SSSSSDSERLEKLFREAFELAQNGNPEEAKEVLEEALELAERLGDRYTVRSLRATLRLVESSSSS
B5: il2ra_site2_2erj_normal_mot_HHH_b2_07522_000000274_0001_22_39_H_._b0b48449b8979d840ab1151e5fe11a36_0001_af2_0001_0000100003_0000001_0 (protein)
chain: DEELERLAELLRRGDPEAYRLLFELLIRIDNGDPEAEEKLREAIRLAEELGDEAVVDSLEAILRA
B6: il2ra_site1_3nfp_normal_mot_HHH_b1_05693_af2_000000134_0001_1_17_H_._22f244968cb0c360d358227666d1b6ad_0001_0001_0000100006_0000001_0 (protein)
chain: SARFAHLVLKAAARAGVPWREIARIIREADRLAGGDPRKLEELVKELLEEEDPEVYRILEELEER
B7: il2ra_site1_2b5i_normal_mot_HHH_b1_08504_af2_000000158_0001_42_54_H_._HHH_b1_06962_0001_0000600032_0000001_0_af2pred_dldesign_0_af2pred (protein)
chain: SSSSSAEDRVYDLFDEALRLHKAGKKEEAKKLLEEALALAQALGDAKLVAEVQAFLDWLESSSSS
B8: il2ra_site1_1z92_normal_mot_HHH_b1_03134_af2_000000003_0001_1_20_H_._a98962bae65c5f3da72e56aefd5e2b4a_0001_0001_0000100016_0000001_0_af2pred_0001_af2pred_1 (protein)
chain: GPEEFLEEQLRRSGVPPEEVEEILELIKRLAQGDPEAKRLLEEILKRLKEEGDPAAKVVRAALLA
B9: il2ra_site1_1z92_sap_18_mot_HHH_b2_04375_000000267_0001_42_56_H_._9983d6beee032e3819f467d055548630_0001_1_0001_0000100006_0000001_0_0001_af2pred_0001_af2pred (protein)
chain: SSSSSKEKLERDVRWLLELAKKARSPRAREIALEFARRDAKLANDPELERLVEEVEEELNSSSSS
B10: il2ra_site1_1z92_normal_mot_HHH_b2_01902_af2_000000252_0001_25_40_H_._HHH_b1_07621_0001_0000200025_0000001_0_af2pred_0001_af2pred (protein)
chain: SSSDTNELIRFALEVVIELAEELGLDEEQAQELAKLAAKLAARGLSEEEIKEELQKLAEELSSSS

biological target: il2ra, P01589; assay: yeast display titration

Apparent Kd, inactive:
B1 no binding seen
B2 no binding seen
B3 no binding seen
B4 no binding seen
B5 no binding seen
B6 no binding seen
B7 no binding seen
B8 no binding seen
B9 no binding seen
B10 no binding seen
